These results are taken from publication PMC10307882.

Sequences of proteins named here, by UniProt entry; tags and fusion partners are left off.
UniProt Q9Z120: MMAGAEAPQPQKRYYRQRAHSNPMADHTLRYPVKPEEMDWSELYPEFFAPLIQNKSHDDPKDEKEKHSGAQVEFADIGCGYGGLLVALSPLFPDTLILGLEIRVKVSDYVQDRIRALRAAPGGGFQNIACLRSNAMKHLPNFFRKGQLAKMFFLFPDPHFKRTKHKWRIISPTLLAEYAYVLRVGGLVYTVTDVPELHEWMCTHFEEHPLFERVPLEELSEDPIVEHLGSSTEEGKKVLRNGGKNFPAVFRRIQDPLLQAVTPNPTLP
UniProt P46938: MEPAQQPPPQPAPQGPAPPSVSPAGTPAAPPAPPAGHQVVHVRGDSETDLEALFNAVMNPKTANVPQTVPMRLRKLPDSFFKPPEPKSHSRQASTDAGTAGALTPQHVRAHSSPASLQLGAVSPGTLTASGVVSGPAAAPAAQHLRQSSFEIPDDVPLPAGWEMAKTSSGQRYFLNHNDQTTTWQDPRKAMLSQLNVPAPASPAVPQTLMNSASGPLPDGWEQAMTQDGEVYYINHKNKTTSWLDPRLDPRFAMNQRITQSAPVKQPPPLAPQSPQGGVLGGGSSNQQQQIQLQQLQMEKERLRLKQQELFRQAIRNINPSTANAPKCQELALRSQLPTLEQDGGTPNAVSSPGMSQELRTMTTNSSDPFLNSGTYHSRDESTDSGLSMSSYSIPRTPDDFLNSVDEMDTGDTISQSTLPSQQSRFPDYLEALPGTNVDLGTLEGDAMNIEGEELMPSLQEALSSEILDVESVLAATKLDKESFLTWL

No constants are given. Whether binding was seen depends on the method and setting. In cells and extracts the contact can be indirect. Some binding calls cover weakened binding; strength is not graded here.

The target of assay [1] is T1, TMEM11 (mouse (endogenous in mouse cardiomyocytes)) (UniProt Q8BK08).
T1 sequence: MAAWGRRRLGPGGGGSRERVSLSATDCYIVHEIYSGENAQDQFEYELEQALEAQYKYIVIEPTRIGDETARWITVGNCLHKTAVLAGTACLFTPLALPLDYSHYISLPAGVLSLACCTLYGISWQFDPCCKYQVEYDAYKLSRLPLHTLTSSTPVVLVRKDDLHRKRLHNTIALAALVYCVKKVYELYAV
In words: co-IP; immunoprecipitation with anti-TMEM11 antibody or anti-METTL1 antibody followed by western blotting; 'in vivo'; source of the lysate not told.

Assay [2] deals with T1, TMEM11 (mouse (endogenous in mouse cardiomyocytes)). In words: co-IP; co-immunoprecipitation in cardiomyocytes.
Assay [3] has as its target METTL1 (mouse (endogenous in mouse cardiomyocytes)) (UniProt Q9Z120). In words: co-IP; immunoprecipitation with anti-TMEM11 antibody or anti-METTL1 antibody followed by western blotting; 'in vivo'; source of the lysate not told.

For “METTL1 (from UniProt Q9Z120 1-268) (enzyme)”, in assay [1], the binding result is reported as “binds”. For YAP (from UniProt P46938 1-488), the binding entry in assay [2] is “no binding”.

B1: TMEM11 (protein, UniProt Q8BK08 1-190)
chain: MAAWGRRRLGPGGGGSRERVSLSATDCYIVHEIYSGENAQDQFEYELEQALEAQYKYIVIEPTRIGDETARWITVGNCLHKTAVLAGTACLFTPLALPLDYSHYISLPAGVLSLACCTLYGISWQFDPCCKYQVEYDAYKLSRLPLHTLTSSTPVVLVRKDDLHRKRLHNTIALAALVYCVKKVYELYAV
Turning to B1, the binding entry in assay [3] was “binds”.
